{
  "source": "patent US20200291096A1",
  "about": "(priority 2017, published 2020)",
  "experiment": "general procedure: Fmoc solid-phase peptide synthesis; Chlorotrityl resin (1.1 mmol/g); HBTU, DIPEA",
  "conditions": "conjugation step",
  "note": "Strings that start with PEPTIDE1 are HELM notation: dots part the residues, brackets hold end groups and non-standard residues.",
  "data": [
    {"substance": "PEPTIDE1{[Cap-I-65].[bAla].[Sar].[Sar].[Sar].[Sar].[Sar].[Sar].[Sar].[Sar].[Sar].[Sar].A.C.[dA].N.E.[1Nal].[dA].C.E.D.F.Y.D.[tBuGly].C.[am]}|CHEM1{[TBMB]}$PEPTIDE1,CHEM1,14:R3-1:R1|PEPTIDE1,CHEM1,20:R3-1:R2|PEPTIDE1,CHEM1,27:R3-1:R3$$$V2.0", "values": [
      {"measurement": "conjugation yield", "result": 12.37, "unit": "%"},
      {"measurement": "final purity (method not given)", "result": 93.54, "unit": "%"}
    ]},
    {"substance": "PEPTIDE1{[Cap-I-66].[bAla].[Sar].[Sar].[Sar].[Sar].[Sar].[Sar].[Sar].[Sar].[Sar].[Sar].A.C.[dA].N.E.[1Nal].[dA].C.E.D.F.Y.D.[tBuGly].C.[am]}|CHEM1{[TBMB]}$PEPTIDE1,CHEM1,14:R3-1:R1|PEPTIDE1,CHEM1,20:R3-1:R2|PEPTIDE1,CHEM1,27:R3-1:R3$$$V2.0", "values": [
      {"measurement": "conjugation yield", "result": 11.95, "unit": "%"},
      {"measurement": "final purity (method not given)", "result": 99.06, "unit": "%"}
    ]},
    {"substance": "PEPTIDE1{[Cap-I-68].[bAla].[Sar].[Sar].[Sar].[Sar].[Sar].[Sar].[Sar].[Sar].[Sar].[Sar].A.C.[dA].N.E.[1Nal].[dA].C.E.D.F.Y.D.[tBuGly].C.[am]}|CHEM1{[TBMB]}$PEPTIDE1,CHEM1,14:R3-1:R1|PEPTIDE1,CHEM1,20:R3-1:R2|PEPTIDE1,CHEM1,27:R3-1:R3$$$V2.0", "values": [
      {"measurement": "final purity (method not given)", "result": 96.2, "unit": "%"}
    ]}
  ]
}
